For one substance, binding results are on record in publication PMC5722314.

These are yes or no findings as the source states them, for the method shown.

The target of this assay is recombinant full-length mouse PrP (wt rPrP), PrP23-230 (mouse) (UniProt P04925). In words: two-colour fluorescence cross-correlation spectroscopy (FCS/SIFT); both purified.

For the substance “recombinant full-length mouse PrP (wt rPrP), PrP23-230 (from UniProt P04925 23-230)”, the binding entry is “no binding (condition: in 0.2% SDS)”.
